# Laboratory results reported in PMC3087504.
# Chains of the proteins cited; added tags and fusions are not shown. A line that says so, or that is headed by a name, gives the form on record, which may keep a tag or linker. Residues count along the entry.
# UniProt O88898, 40-680: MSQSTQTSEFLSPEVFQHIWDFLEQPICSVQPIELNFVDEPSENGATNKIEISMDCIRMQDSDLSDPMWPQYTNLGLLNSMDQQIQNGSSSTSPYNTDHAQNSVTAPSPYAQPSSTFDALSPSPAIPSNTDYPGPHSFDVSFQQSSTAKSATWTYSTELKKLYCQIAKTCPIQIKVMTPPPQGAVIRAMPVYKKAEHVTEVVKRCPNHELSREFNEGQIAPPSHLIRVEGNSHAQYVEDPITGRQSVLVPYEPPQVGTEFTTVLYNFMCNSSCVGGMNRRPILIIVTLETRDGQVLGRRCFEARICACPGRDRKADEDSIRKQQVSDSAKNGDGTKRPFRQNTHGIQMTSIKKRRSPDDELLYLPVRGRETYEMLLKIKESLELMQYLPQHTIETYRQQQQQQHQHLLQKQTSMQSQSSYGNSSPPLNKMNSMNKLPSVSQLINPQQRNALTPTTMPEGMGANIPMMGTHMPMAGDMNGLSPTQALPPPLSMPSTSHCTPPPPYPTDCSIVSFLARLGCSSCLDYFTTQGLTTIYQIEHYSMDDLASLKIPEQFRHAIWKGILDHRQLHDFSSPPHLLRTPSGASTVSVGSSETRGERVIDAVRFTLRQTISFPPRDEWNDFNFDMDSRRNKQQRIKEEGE
# MBP-TAp63γ (Mus musculus), one chain, as listed by the source: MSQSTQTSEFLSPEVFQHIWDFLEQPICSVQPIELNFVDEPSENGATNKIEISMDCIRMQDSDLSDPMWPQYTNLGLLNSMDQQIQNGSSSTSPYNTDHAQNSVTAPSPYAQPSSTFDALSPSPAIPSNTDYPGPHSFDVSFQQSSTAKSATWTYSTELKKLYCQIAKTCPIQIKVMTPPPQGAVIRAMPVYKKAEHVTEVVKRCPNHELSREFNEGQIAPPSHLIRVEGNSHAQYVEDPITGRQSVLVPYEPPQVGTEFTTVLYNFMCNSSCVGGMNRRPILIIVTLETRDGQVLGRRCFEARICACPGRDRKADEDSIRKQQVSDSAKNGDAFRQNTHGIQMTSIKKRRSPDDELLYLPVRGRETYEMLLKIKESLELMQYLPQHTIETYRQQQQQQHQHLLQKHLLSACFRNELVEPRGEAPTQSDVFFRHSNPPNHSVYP
# Construct, isoform or probe ends are uncertain for at least one entry. For some assays here: Negatives hold for the conditions tested. For some assays here: Weaker means in comparison with the reference protein, sequence or condition of that experiment.
# Assays:
# Test in all cases: fluorescence anisotropy
# [1] = target: MBP-TAp63α (Mus musculus) (UniProt O88898); details: 300 nM DNA, binds, lower affinity than FTL and γ; 10 mM potassium phosphate pH 7.6, 200 mM NaCl, room temperature, 30 min; 15 nM p21 DNA (300 nM for controls), protein 0.1-15 µM monomer; recombinant protein; protein details: N-term MBP, C-term His6; label: 5'-fluorescein
# [2] = test system: MBP-TAp63γ (Mus musculus); details: 300 nM DNA; 10 mM potassium phosphate pH 7.6, 200 mM NaCl, room temperature, 30 min; 15 nM p21 DNA (300 nM for controls), protein 0.1-15 µM monomer; recombinant protein; protein details: N-term MBP, C-term His6; label: 5'-fluorescein
# [3] = target: MBP-TAp63αFTL (Mus musculus) (UniProt O88898); details: 300 nM DNA; 10 mM potassium phosphate pH 7.6, 200 mM NaCl, room temperature, 30 min; 15 nM p21 DNA (300 nM for controls), protein 0.1-15 µM monomer; recombinant protein; protein details: N-term MBP, C-term His6; label: 5'-fluorescein
Sequence,binding result [1],binding result [2],binding result [3]
CCTATTCTAGACATGTGAGGACATGTCGATACTTATTCC (double strand) [SELEX-based p63 binding sequence],binds more weakly,binds,binds
CGAGTTGTAAGTCGAATTGATACCATAATGCACTACACG (double strand) [random sequence],–,no binding,no binding
